These are yes or no findings as the source states them, for the method shown. Binding seen in cells or lysates may run through a third protein. Some binding calls cover weakened binding; strength is not graded here.

The chains behind the UniProt entries cited, without tags or fusion partners. Where a name states a change or a piece, a line headed by the entry shows the natural chain unless it says otherwise. Residues count along the entry.
UniProt P04114, residues 28-4563: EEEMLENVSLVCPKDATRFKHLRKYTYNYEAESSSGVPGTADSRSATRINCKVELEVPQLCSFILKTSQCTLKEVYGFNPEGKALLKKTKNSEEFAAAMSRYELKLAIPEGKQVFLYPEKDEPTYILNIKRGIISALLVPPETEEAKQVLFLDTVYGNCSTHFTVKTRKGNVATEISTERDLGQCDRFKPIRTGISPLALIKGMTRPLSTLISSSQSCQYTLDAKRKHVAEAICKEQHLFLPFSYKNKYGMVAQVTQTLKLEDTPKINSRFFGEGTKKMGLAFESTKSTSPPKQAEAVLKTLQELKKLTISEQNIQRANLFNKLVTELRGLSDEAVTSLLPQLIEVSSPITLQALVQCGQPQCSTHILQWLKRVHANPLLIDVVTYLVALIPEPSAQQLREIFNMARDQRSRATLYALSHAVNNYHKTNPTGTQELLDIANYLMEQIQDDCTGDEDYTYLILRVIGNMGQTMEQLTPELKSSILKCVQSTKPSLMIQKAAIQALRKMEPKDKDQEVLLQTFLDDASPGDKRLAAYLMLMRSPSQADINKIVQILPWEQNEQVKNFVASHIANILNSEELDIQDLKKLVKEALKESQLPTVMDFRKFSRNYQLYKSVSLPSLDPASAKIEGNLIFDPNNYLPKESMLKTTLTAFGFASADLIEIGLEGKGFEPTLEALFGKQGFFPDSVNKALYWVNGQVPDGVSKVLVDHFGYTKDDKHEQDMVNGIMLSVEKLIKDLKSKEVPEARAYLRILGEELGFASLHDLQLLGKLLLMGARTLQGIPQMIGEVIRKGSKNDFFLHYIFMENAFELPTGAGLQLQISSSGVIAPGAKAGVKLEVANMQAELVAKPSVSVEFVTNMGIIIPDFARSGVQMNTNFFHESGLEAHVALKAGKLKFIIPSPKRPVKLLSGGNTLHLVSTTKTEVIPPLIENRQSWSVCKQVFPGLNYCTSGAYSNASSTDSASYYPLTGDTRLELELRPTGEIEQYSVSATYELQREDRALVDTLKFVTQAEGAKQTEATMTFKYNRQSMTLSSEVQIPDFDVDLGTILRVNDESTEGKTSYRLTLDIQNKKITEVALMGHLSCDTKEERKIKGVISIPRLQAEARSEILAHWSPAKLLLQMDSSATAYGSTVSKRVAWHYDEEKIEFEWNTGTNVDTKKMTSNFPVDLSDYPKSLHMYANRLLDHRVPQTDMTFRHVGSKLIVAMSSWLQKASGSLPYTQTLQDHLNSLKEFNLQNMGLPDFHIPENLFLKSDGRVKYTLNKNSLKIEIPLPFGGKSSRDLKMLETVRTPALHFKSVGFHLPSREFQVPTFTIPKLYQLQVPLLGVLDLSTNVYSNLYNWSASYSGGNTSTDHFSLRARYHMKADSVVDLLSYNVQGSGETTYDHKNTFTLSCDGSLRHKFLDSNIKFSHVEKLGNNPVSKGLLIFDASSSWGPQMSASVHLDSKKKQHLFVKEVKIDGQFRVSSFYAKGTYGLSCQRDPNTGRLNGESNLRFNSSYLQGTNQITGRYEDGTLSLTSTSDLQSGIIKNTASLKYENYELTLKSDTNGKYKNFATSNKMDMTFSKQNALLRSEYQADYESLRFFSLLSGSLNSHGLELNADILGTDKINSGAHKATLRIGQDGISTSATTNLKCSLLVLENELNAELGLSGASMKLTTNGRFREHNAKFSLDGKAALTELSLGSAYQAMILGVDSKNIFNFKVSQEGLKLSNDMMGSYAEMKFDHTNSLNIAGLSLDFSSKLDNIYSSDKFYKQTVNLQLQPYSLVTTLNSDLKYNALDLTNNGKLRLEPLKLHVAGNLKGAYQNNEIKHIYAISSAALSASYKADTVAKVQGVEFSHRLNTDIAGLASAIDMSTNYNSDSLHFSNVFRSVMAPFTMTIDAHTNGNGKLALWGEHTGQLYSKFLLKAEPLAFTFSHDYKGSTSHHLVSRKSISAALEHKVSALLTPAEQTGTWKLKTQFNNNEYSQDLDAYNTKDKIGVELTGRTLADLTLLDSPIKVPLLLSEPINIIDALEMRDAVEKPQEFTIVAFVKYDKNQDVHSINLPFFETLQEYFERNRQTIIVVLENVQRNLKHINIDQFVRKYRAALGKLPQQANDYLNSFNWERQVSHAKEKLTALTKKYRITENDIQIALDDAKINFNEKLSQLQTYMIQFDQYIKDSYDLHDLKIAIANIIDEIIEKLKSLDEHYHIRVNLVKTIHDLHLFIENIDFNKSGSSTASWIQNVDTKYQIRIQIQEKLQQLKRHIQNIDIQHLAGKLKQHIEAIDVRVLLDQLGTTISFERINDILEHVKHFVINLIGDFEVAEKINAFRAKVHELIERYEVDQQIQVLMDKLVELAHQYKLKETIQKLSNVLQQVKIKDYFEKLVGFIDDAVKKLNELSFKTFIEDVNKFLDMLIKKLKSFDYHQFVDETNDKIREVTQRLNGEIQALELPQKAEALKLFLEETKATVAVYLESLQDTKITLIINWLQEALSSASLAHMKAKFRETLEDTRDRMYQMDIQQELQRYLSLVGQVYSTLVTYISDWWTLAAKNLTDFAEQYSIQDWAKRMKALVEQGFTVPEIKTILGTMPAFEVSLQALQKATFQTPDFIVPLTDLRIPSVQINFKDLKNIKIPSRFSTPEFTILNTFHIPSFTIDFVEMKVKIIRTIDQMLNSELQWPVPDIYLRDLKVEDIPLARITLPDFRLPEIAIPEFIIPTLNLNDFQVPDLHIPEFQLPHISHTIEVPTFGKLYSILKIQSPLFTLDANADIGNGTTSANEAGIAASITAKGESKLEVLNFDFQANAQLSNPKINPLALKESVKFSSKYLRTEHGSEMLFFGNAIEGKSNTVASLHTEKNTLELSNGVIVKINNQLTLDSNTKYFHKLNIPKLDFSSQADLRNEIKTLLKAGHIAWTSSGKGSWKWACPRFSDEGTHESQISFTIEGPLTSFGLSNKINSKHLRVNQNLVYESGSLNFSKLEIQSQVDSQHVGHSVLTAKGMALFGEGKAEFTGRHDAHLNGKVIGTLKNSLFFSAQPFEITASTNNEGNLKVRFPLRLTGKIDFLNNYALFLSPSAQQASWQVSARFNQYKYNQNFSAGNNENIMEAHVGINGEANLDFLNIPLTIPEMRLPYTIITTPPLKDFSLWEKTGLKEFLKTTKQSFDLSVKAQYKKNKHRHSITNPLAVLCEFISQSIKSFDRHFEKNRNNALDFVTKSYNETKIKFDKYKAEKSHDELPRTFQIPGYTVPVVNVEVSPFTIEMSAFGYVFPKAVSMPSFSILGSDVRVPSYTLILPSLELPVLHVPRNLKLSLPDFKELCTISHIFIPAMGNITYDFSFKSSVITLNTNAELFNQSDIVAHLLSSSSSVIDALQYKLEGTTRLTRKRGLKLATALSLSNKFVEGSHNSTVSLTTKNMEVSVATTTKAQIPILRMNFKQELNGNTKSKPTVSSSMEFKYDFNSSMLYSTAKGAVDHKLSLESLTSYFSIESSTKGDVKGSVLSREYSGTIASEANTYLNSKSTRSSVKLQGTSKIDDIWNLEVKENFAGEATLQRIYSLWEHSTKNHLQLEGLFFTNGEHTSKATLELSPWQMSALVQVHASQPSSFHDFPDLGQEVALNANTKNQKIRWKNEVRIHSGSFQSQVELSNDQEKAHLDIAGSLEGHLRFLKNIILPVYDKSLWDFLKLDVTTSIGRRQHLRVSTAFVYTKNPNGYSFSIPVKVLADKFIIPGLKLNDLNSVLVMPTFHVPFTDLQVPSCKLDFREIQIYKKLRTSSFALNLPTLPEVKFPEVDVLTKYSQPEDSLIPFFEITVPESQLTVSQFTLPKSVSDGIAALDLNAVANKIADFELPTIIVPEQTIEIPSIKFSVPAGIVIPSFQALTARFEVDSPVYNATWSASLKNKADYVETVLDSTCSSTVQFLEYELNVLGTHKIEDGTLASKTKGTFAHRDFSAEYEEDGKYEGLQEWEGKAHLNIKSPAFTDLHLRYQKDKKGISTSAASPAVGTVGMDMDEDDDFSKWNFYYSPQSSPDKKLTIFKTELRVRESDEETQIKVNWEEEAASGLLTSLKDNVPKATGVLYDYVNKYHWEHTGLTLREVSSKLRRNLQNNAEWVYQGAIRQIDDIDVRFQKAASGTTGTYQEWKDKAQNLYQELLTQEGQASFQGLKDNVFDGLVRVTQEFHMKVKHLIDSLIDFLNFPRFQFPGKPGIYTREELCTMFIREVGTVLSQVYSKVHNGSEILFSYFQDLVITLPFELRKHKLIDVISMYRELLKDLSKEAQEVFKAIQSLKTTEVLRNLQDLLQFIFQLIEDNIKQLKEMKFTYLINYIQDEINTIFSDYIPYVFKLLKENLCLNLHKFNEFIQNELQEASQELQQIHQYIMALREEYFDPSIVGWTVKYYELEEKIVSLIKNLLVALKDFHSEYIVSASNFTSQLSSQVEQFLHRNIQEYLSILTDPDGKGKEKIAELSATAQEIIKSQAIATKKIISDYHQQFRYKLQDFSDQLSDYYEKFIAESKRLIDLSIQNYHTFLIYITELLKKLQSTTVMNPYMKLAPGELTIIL
UniProt Q99805: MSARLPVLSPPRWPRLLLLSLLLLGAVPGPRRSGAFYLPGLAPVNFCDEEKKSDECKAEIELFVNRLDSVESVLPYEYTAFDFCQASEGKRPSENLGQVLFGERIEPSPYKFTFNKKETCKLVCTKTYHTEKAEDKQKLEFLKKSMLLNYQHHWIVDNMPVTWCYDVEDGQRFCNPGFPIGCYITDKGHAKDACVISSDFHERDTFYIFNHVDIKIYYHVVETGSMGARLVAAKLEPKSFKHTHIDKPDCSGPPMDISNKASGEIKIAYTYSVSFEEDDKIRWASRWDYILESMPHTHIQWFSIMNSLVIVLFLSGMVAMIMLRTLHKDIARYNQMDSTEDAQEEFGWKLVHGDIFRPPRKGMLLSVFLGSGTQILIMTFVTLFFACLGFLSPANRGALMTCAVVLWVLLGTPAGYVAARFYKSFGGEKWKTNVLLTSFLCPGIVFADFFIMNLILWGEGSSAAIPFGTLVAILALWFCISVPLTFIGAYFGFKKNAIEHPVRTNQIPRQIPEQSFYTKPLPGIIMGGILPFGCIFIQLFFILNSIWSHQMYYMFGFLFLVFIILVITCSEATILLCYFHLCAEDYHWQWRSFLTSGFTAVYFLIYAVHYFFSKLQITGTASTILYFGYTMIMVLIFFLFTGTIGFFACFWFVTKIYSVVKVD

Data on 1 substance can be found in US20110217401A1.

The target of this test is human apolipoprotein B (apoB) of serum low density lipoprotein particles (human) (UniProt P04114). The test can be described thus: co-isolation by size exclusion chromatography; also co-purification with LDL on flotation centrifugation. In general terms: SEC sorts molecules by how far they enter the pores of the column.

On to “apoBNOX (TM9 SF2), shed/truncated soluble form associated with low density lipoprotein particles of human sera (from UniProt Q99805 29-300) (enzyme)”, for which the binding entry is reported as “binds”.
